For at least one compound, name, drawing or mass did not settle the structure.
How the values were obtained:
[1] = Stabilization of multiple-extruded polypropylene; details: 0.05% of compound; heating zones 260, 270, 280° C.; measured at 230° C./2.16 kg; without compound 17.5
Protocol: 1.3 kg of polypropylene powder (Profax 6501), which has been prestabilized with 0.025% of Irganox®1076 (n-octadecyl 3-[3,5-di-tert-butyl-4-hydroxyphenyl]propionate) (melt index 3.2 g/10 min, measured at 230° C./2.16 kg) are blended with 0.05% of Irganox®1010 (pentaerythritol tetrakis[3-(3,5-di-tert-butyl-4-hydroxyphenyl)propionate]), 0.05% of calcium stearate, 0.03% of DHT 4A® (Kyowa Chemical Industry Co., Ltd., [Mg4.5Al2(OH)13CO3.3.5H2O]) and 0.05% of compound of Table 4. This blend is then extruded in an extruder having a cylinder diameter of 20 mm and a length of 400 mm at 100 rpm, the 3 heating zones being adjusted to the following temperatures: 260, 270, 280° C. The extrudate is cooled by drawing it through a water bath and is then granulated. This granulate is repeatedly extruded. After 3 extrusions, the melt index is measured (at 230° C./2.16 kg). A substantial increase in the melt index denotes pronounced chain degradation, i.e. poor stabilization.

[2] = Stabilization of polyethylene during processing (Brabender plastograph); details: 0.05 part compound and 0.05 part Irganox 1010 per 100 parts polyethylene; 220° C., 50 rpm; without compound 9.7
Protocol: 100 parts of polyethylene powder (Lupolen®5260 Z) are blended with 0.05 part of Irganox®1010 (pentaerythritol tetrakis[3-(3,5-di-tert-butyl-4-hydroxyphenyl)propionate]) and 0.05 part of a compound of Table 5 and the blend is kneaded in a Brabender plastograph at 220° C. and 50 rpm. During this time the kneading resistance is recorded continuously as torque. In the course of the kneading time the polymer begins to crosslink after prolonged constancy, as can be determined by the rapid increase in torque. The time taken until a marked increase in torque is shown in Table 5 as a measure of the stabilizing action. The longer this time is the better the stabilizing action.

[3] = Light-colored SBR-vulcanisate, ozone atmosphere for 96 hours: crack formation; set-up: key: grade 0: Grade 0 denotes no cracks; grade 1 denotes narrow flat cracks; grade 2 denotes moderately broad, moderately deep cracks, clearly visible; grade 3 denotes broad and deep cracks; details: 2.0 phr stabilizer, ozone 50 pphm, 40° C., dynamic elongation, without stabilizer grade 2
Protocol: (§1) 100 parts by weight of Cariflex®S-1502 (styrene/butadiene rubber, Shell) are processed at 60° C., in a mixing mill, with 30.0 parts by weight of Kronos®CL 220 [titanium dioxide (pigment), Kronos Titan GmbH], 30.0 parts by weight of Aktisil®MM [kaolin (filler), Hoffmann Mineral, Neuburg/Donau], 5.0 parts by weight of Naftolen®N 401 [plasticiser, Metallgesellschaft], 10.0 parts by weight of zinc oxide [vulcanization activator], 2.0 parts by weight of stearic acid [vulcanization activator], 2.0 parts by weight of sulfur [vulcanizing agent], 1.0 part by weight of Vulkacit®MOZ [vulcanization accelerator, Bayer], 0.25 part by weight of Vulkacit®Thiuram [vulcanization accelerator, […], to form a homogeneous mixture, the vulcanization system (sulfur, Vulkacit®MOZ and Vulkacit®Thiuram) not being added until the end of the mixing process. The mixture is vulcanized in electrical vulcanization presses at 150° C. until T95 is reached in the rheometer curves to form elastomer plates 2 mm thick, 21 cm long and 8.0 cm wide.
Some of the elastomer plates so obtained are tested for the action of ozone according to the ASTM standard D 3395-86 while subject to dynamic elongation. In this test the plates are first stored for 30 days in a standard atmosphere [23/50 SN-ISO 291]. […] The test plates are then assessed for crack formation according to ASTM D 3395-86. […]

[4] = Light-colored SBR-vulcanisate (Example 23): ΔL-color after 3 weeks in diffuse daylight; details: 2.0 phr stabilizer; 3 weeks at room temperature in diffuse daylight; scale 0 to 100, 100 = no discoloration; without stabilizer 97
Protocol: as §1
The remaining elastomer plates are stored for 3 weeks at room temperature in a standard laboratory atmosphere in diffuse daylight. The ΔL-color of those plates is then determined according to DIN 6167, which corresponds to a scale of from 0 to 100. No discoloration is indicated by a value of 100.

SMILES: CC(C)(C)c1cc2c(c(C(C)(C)C)c1)OC(=O)C2c1ccc(C#N)cc1 (stereo not shown) [Compound (106), 5,7-di-tert-butyl-3-(4-cyanophenyl)-3H-benzofuran-2-one]
- Melt index after 3 extrusions [1]: 4.7
- Time until increase in torque [2]: 27.5 min
- Crack formation according to ASTM D 3395-86 [3]: grade 1
- ΔL-color according to DIN 6167 [4]: 95

Source: patent US6809208B2, “3-Arylbenzofuranones with electron-withdrawing substituents as stabilizers” (Ciba Specialty Chemicals Corporation, priority 2000, dated 2004)
